Results are given in words; binding and its absence hold for the method and conditions named. Some entries that bind do so weakly or less than the wild type.

Chains of the proteins cited; added tags and fusions are not shown. Lines headed by an entry give the natural chain unless they say otherwise; changes in a name come on top.
UniProt P06756: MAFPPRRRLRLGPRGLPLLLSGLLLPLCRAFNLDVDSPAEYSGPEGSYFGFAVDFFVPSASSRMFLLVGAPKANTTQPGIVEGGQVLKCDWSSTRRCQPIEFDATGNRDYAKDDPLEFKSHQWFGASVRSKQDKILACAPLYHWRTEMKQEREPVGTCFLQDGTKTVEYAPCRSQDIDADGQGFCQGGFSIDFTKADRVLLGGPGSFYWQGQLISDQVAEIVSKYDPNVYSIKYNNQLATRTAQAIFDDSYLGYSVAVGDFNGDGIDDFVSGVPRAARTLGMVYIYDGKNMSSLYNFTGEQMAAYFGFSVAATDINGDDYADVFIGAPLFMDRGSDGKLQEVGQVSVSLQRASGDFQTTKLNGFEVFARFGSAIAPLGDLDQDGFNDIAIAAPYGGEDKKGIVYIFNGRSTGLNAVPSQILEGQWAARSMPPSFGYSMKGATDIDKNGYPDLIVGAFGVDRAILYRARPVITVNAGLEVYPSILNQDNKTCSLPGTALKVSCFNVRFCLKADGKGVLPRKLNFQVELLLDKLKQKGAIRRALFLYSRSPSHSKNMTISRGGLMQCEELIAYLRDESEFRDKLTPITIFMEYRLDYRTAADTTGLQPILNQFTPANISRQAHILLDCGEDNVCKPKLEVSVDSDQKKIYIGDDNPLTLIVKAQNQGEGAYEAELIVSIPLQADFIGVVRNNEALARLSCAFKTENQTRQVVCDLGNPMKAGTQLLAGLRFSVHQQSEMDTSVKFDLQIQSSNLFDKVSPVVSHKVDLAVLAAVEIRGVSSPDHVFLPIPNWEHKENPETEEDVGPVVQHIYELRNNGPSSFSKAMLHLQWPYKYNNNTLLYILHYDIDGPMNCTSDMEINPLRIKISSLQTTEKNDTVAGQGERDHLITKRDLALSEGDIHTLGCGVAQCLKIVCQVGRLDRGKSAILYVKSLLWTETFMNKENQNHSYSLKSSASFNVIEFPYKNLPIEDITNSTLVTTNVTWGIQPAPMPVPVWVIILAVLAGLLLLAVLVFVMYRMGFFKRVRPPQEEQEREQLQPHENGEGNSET
UniProt P18564: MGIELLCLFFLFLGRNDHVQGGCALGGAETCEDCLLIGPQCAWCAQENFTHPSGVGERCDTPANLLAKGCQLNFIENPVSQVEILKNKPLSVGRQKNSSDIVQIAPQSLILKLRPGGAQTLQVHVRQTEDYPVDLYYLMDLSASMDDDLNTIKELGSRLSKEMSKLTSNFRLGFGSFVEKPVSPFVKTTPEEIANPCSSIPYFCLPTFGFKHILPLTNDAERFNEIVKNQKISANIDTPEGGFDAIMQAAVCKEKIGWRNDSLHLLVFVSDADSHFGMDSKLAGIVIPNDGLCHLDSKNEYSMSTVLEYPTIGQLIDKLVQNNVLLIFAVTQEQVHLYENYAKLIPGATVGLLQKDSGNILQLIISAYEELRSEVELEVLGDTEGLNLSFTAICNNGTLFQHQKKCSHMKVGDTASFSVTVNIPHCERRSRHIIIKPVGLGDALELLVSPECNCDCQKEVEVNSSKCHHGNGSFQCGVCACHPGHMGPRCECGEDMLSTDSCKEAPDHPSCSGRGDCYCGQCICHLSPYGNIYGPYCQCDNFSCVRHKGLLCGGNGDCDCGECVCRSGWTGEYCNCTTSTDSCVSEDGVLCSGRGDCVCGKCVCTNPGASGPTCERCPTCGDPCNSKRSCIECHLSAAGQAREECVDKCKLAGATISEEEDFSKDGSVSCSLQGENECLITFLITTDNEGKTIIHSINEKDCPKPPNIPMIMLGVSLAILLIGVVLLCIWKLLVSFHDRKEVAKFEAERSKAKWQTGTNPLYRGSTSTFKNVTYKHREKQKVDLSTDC

Our source for the binding values is patent US20160319032A1.

This test deals with soluble αVβ6 (human) (UniProt P06756+P18564). Kind of test: ELISA, recombinant antibody on αVβ6.

B1: sc 161 (antibody, V domains shown)
VH: EVQLVQSGAEVKKPGESLKISCKGSGYSFTSYWIGWVRQMPGKGLEWMGIIYPGDSDTRYSPSFQGQVTISADKSISTAYLQWSSLKASDTAMYYCARHGIAAAGFYYYYMDVWGQGTTVTVSS
VL: EIVLTQSPDTLSLSPGERASLSCRASQNVNRNYLVWYQQKPGQAPRLLIYGTSNRATGIPDRFSGSGSGTDFTLTISRLEPEDFAVYYCQQCGSLPFTFGPGTKVDIKR
For the molecule B1, the binding result is “binds”.

B2: sc 277 (antibody, V domains shown)
VH: EVQLVQSGAEVKKPGESLKISCKGSGYSFPSYWIGWVRQMPGKGLEWMGIIYPGDSDTRYSPSFQGQVTISADKSISTAYLQWSSLKASDTAMYYCARHPMEDGMDVWGQGTTVTVSS
VL: SYELTQPPSVSVSPGQTARITCSGDALPKKYAFWYQQKSGQAPVLVIYDDNKRPSGIPERFSGSSSGTMATLTITGAQVEDEADYYCYSTDSSGHHVFGGGTKLTVL
In the case of B2, the binding entry was “binds”.
